According to PubChem BioAssay AID1347075 (National Center for Advancing Translational Sciences (NCATS), 2019):
Among all 400,000 compounds or so, about 5,500 (1.4%) were called active. Inconclusive results, whose numbers are uncertain, are shown with a selection of clear calls. Calls follow the shape of the dose curve; as a rule, active = well fitted cell-killing curve with a large enough effect; inconclusive = small, poorly fitted or top-dose-only effect, or effect the other way; inactive = flat fitted curve, though single readings scatter. Potencies of inconclusive entries are doubtful fits and often do not repeat.

assay: qHTS assay for MDR1-selective chemotherapeutics: Primary screen using the parental adenocarcinoma cell KB-3-1; conditions: KB-3-1 viability, CellTiter-Glo ATP luminescence, 72 h; activity change, negative = cytotoxic: at 46.1 µM (top of the series); also: nearly all actives have a fitted effect of over 60% in size
In short: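 KB-3-1 parental drug-naive adenocarcinoma cells in DMEM/10% FBS, incubated 72 h at 37 C with pin-transferred compounds across a concentration series. Viability by CellTiter-Glo luminescence; concentration-response curves fitted after normalization.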
% is scaled to controls: 0 for no effect and ±100 for the full control effect; potency is read from the fitted curve at half-maximal effect.

SMILES	Potency	activity change, negative = cytotoxic
CCCNC(=O)Nc1nc2ccccc2s1	inconclusive: 29.1 µM [cytotoxic, single point]	–
O=C(Nc1nnc([C@H]2C[C@H](O)[C@@H](CO)O2)s1)Nc1cccc2c1CCCC2	–	inactive: 0%
O=C(c1ccco1)N1CCN(Cc2nc3ccccc3c(=O)n2-c2ccc(F)cc2)CC1	–	inactive: 11.3%
COCCN(C(=O)COC(=O)COc1ccc(Cl)c(C)c1)c1c(N)n(Cc2ccccc2)c(=O)[nH]c1=O	inconclusive: 16.4 µM [rising, partial curve, poor fit]	–
O=C(CCCOc1ccc(Cl)cc1Cl)N/N=C/c1ccccc1O	–	inactive: 0%
COc1cccc(/C=C/c2nc3ccccc3nc2/C=C/c2cccc(OC)c2OC)c1OC	inconclusive: 29.1 µM [rising, single point]	–
Cc1nnsc1-c1c(C(=O)N2CCOCC2)c(C)nn1-c1ccccc1	inconclusive: 1.46 µM [rising, full curve]	–
COc1ccc(Cl)cc1NC(=O)NCc1ccccn1	–	inactive: -14%
O=C(O)c1ccccc1C(=O)N1CCN(S(=O)(=O)c2cccc(C(F)(F)F)c2)CC1	inconclusive: 2.59 µM [rising, partial curve, poor fit]	–
Cc1cc(N2CCOCC2)nc2ccc(NC(=O)CCC(=O)N3CCCC(C)C3)cc12 (stereo not given)	–	inactive: 6.89%
C[C@H](CO)N1C[C@H](C)[C@@H](CN(C)S(=O)(=O)c2ccccc2C#N)OCc2cn(nn2)CCCC1=O	inconclusive: 29.1 µM [rising, single point]	–
COc1cccc2sc(NNC(=O)c3nc4ccccc4s3)nc12	inconclusive: 18.4 µM [cytotoxic, partial curve]	–
COc1ccc(CNC(=O)Cn2c(=O)ccc3cc(S(=O)(=O)N4CCCC4)ccc32)cc1	–	inactive: -0.214%
O=C(Nc1ccc(Oc2cccc(C(F)(F)F)c2)nc1)c1ccco1	–	inactive: -8.03%
Cn1c(N)c(N2CCCCC2)c(=O)n(CC(=O)Nc2cccc(C#N)c2)c1=O	inconclusive: 29.1 µM [rising, single point]	–
OC[C@@H]1CN(Cc2ccc(-c3ccccc3)cc2)C[C@H](n2cnc3c(NC4CCC4)ncnc32)O1	inconclusive: 29.1 µM [cytotoxic, single point]	–
CCOC(=O)CN1C(=O)C(=O)N(Cc2ccccc2F)C1=O	–	inactive: 3.91%
COc1ccc(C(=O)CCNc2ccc3c(c2)OCCO3)cc1	–	inactive: -15.1%

SMILES	Potency	activity change, negative = cytotoxic
CCOC(=O)c1ccc(N2C(=O)c3[nH]nc(-c4ccc(OCC)cc4)c3C2c2cccs2)cc1 (stereo not given)	inconclusive: 25.9 µM [cytotoxic, partial curve, poor fit]	–
CCOC(=O)c1c(-c2ccc(-c3ccccc3)cc2)csc1NC(=O)CNCCN(C)C	inconclusive: 23.1 µM [cytotoxic, single point]	–
C/C(=N\Nc1ccc2nncn2n1)c1ccc(Br)s1	inconclusive: 0.651 µM [rising, full curve, poor fit]	–
CC(C)[C@H](NC(=O)c1ccc([N+](=O)[O-])cc1Cl)C(=O)N1CCN(C/C=C/c2ccccc2)CC1	inconclusive: 23.1 µM [cytotoxic, single point]	–
Cc1ccc(NC(=O)CSc2nnc3n2CCCCC3)cc1S(=O)(=O)N1CCOCC1	inconclusive: 20.6 µM [rising, single point]	–
O=C(NC12CC3CC(CC(C3)C1)C2)c1ccccc1	inconclusive: 18.4 µM [rising, single point]	–
Cn1cc(C(=O)N/N=C/c2ccc3c(c2)OCO3)c2ccccc21	active: 8.2 µM	–
COc1ccc(CCNC(=O)c2c(O)c3ccccc3n(C)c2=O)cc1	–	inconclusive: -15.1%
Cc1cc(C(=O)NC2CCCc3c2cnn3-c2ccc(C)c(C)c2)nc(C)n1 (stereo not given)	–	inactive: -27%
Cc1oc(-c2ccc(Cl)cc2)nc1CN1CCC(C(=O)NCCCN2CCCC2=O)CC1	–	inactive: 1.87%
COC(=O)c1ccc2c(c1C(=O)OC)CN(S(=O)(=O)C(C)(C)C)[C@@H]2CCO	–	inactive: 0%
S=C(Nc1ccc(Br)cc1Cl)N1CCN(c2ccccn2)CC1	inconclusive: 32.6 µM [cytotoxic, single point]	–
O=S1(=O)CC(N2CCSCC2)CN1Cc1cn(Cc2ccc(F)cc2)nn1 (stereo not given)	–	inactive: 0.519%
COc1cc(/C=N/N(C)C)ccc1OC(=O)c1cccs1	inconclusive: 20.6 µM [rising, single point]	–
Cc1ccc(C(=O)Nc2ccccc2C(=O)NCc2ccco2)cc1S(=O)(=O)N1CCCCC1	–	inactive: 0.738%
CSCCC(C(=O)Nc1c(C)cccc1C)n1c(COc2ccc(C)cc2)nc2ccccc21 (stereo not given)	inconclusive: 20.6 µM [cytotoxic, partial curve]	–
Cc1cccc(Cn2c(COc3ccc(Cl)cc3)nc3ccccc32)c1	–	inactive: -14.9%

Three compounds already listed, ordered by number of heavy atoms, rising:
SMILES	Potency	activity change, negative = cytotoxic
COC(=O)c1ccc2c(c1C(=O)OC)CN(S(=O)(=O)C(C)(C)C)[C@@H]2CCO	–	inactive: 0%
Cc1cc(C(=O)NC2CCCc3c2cnn3-c2ccc(C)c(C)c2)nc(C)n1 (stereo not given)	–	inactive: -27%
Cc1oc(-c2ccc(Cl)cc2)nc1CN1CCC(C(=O)NCCCN2CCCC2=O)CC1	–	inactive: 1.87%
